Article PMC8211912

Target: T1, AtSYP81 (yeast two-hybrid fusion) (Arabidopsis thaliana) (UniProt P59277)
T1 sequence: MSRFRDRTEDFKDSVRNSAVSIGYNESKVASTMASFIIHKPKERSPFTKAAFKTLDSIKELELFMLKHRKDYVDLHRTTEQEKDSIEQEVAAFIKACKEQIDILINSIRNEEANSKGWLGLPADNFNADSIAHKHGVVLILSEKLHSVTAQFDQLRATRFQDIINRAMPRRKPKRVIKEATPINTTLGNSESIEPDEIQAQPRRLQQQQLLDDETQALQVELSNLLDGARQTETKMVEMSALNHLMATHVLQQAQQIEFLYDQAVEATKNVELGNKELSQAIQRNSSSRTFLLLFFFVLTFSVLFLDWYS
Assay: two-hybrid; Cytosolic regions in pGADT7 or pGBKT7, paired constructs in S. cerevisiae AH109; selected on SD/-Leu/-Trp, interactions examined on SD/-Leu/-Trp/-His/-Ade

In the case of “AtSEC22 cytosolic region (yeast two-hybrid fusion) (Arabidopsis thaliana) (domain or fragment)”, the binding is reported as “no binding”.

No constants are given. Whether binding was seen depends on the method and setting. Tags and fused reporters may be left off the sequences shown.
